Test results published in patent US20130089872A1.
No constants are given. Whether binding was seen depends on the method and setting. Some entries that bind do so weakly or less than the wild type.

Molecular target: T1, hmTROP-2-B chimeric protein (human; mouse), Q8BGV3
T1 chain: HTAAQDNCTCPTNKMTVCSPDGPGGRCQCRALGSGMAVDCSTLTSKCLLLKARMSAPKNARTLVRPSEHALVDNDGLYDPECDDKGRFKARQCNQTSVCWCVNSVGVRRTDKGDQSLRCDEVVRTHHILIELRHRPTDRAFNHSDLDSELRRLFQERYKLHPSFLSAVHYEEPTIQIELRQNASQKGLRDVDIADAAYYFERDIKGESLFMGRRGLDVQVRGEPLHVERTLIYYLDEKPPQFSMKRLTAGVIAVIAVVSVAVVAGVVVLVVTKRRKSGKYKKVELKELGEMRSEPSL
Assay: flow cytometry (dot plot FL2-H against FL1-H) on HEK293 cells transiently expressing hmTROP-2-B [A]
Settings: remark: other sources report otherwise

binding: binds
B1: anti-hTROP-2 monoclonal antibody clone K5-116-2-1 (antibody, V domains shown)
VH: QVQLQQPGAELVRPGASVKLSCKASGYTFTSYWITWVKQRPGQGLEWIGNIYPSDSYTNYNQKFRDKATLTVDKSSSTAYMQLSSPTSEDSAVYYCSALFDYWGQGTTLTVSS
VL: DILLTQSPAILSVSPGERVSFSCRASQSIGTSIHWYQQRTNGSPRLLIKYASESISGIPSRFSGSGSGTDFILSINSVESEDIADYYCQQSNSWPFTFGSGTKLEIK
